## Results of single-concentration screens

From ChEMBL document CHEMBL3988442, “University of Dundee, Small-Polar-MMV Screening Library” (2021).

Mtb glucose medium: 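Growth of Mycobacterium tuberculosis over 3 days (7H9 medium with glucose and tyloxapol); the read-out is not stated. Concentration: 500 µM. Direction is inferred from retests: higher values go with more growth inhibition. About 18,000 compounds were tested under these conditions; 7.9% (about 1,400) showed 50% or more at least once.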
Mtb cholesterol medium: 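Phenotypic screen: M. tuberculosis growth, cholesterol and DPPC medium, 4 days; the read-out is not stated. Compounds at 500 µM. The record gives no direction; compounds that gave an IC50 in retests scored well above the rest, so higher reads as more growth inhibition. About 18,000 compounds were tested under these conditions; 5% (about 900) showed 50% or more at least once.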

The filed quantity is “Percent Effect” (%). The controls that fix the scale are not given in the record; negative values are as filed. The compounds are a random part of those screened.

| compound | Mtb glucose medium | Mtb cholesterol medium |
|---|---|---|
| `CCC(N)C(=O)N1CCN(S(C)(=O)=O)CC1` (stereo unspecified) | 0.3814% | -0.7009% |
| `CC(C)N(CCOc1ccccc1C#N)CC(N)=O` | 44.62% | 30.85% |
| `Cc1csc(N2CCN(C(=O)c3scnc3C)CC2)n1` | 33.72% | 18.79% |
| `O=C(NCCOc1ncccc1Cl)c1cscn1` | -4.379% | -10.66% |
| `Cc1[nH]ncc1CCCNC(=O)CCN` | -5.272% | 2.436% |
| `O=C(Nc1cc(F)cc(F)c1)N[C@@H]1CNCC[C@H]1O` | 30.35% | 22.47% |
| `CNC(=O)N1CCN(c2ccncc2)CC1` | 0.4744% | -5.637% |
| `Cc1c[nH]c(CN(C)C(=O)c2cc(C(F)F)n[nH]2)n1` | 22.77% | -9.226% |
| `CC(NC(=O)CNC(=O)C1CC1)c1ccc(F)c(F)c1` (stereo unspecified) | 28.06% | 2.803% |
| `CCCN(CCOC)CC(=O)Nc1ccn(C)n1` | 14.78% | 11.84% |
| `CN(CCO)C1=NS(=O)(=O)c2ccccc21` | 11.45% | 10.72% |
| `COC(=O)c1ccc(CSc2nc(N)cc(O)n2)cc1` | 9.667% | -5.755% |
| `CNCC1CCCN(CCCn2ccnc2C)C1` (stereo unspecified) | 21.59% | 3.35% |
| `NC(=O)C1(NC(=O)C2CCc3ccccc32)CCCC1` (stereo unspecified) | 5.054% | 2.796% |
| `CN1CCC(CC(=O)NCc2ccccc2)CC1` | 14.35% | 13% |
| `COCC(=O)N1CCN(C(=O)c2ncncc2Br)CC1` | -5.652% | -6.324% |
| `CN(C(=O)CSc1cnn[nH]1)C1CCCCC1` | 28.83% | 26.06% |
| `CC(C)c1nc(CNC(=O)c2ccc(C#N)cc2)no1` | 40.58% | 19.6% |
| `CC(=O)N1CC[C@@H](NC(=O)c2cccc(O)c2)[C@H](O)C1` | -6.921% | -7.327% |
| `N[C@H]1CCCNC1=O` | -8.408% | -6.385% |
| `CN(Cc1cccs1)C(=O)CCCNC(=O)C(C)(C)C` | 45.37% | 16.48% |
| `Nc1nc2n(c1C(=O)c1ccccc1)CCC2` | 6.359% | 0.2562% |
| `Cn1nccc1CC1CCNCC1` | 4.446% | -0.934% |
| `COCC(C#N)NC(=O)CCNc1ccccc1` (stereo unspecified) | 11.2% | -12.26% |
| `COCC(C)Nc1cncc(Br)c1` (stereo unspecified) | 21.27% | 4.778% |
| `CN1CCC(N(C)C(=O)C2CCCC2)CC1` | 8.23% | -18.17% |
| `N#CC1=NCc2ccccc2N1` | 22.4% | 36.83% |
| `CN(C)CCNC(=O)c1cccc(F)c1` | 4.287% | 0.5516% |
| `CC(O)CN(C)C1CCNCC1` (stereo unspecified) | -2.354% | -0.6239% |
| `Cn1cnc2cc(C(=O)N3CCSCC3)ccc21` | -4.123% | 4.941% |
| `CCN1CCc2ccc(NS(=O)(=O)CC)cc21` | -4.292% | -9.442% |
| `CCc1ccsc1C(=O)Nc1c(C(N)=O)n[nH]c1C` | 24.57% | 2.704% |
| `COCC(=O)N(CC1CCCCO1)C(C)C` (stereo unspecified) | -7.551% | -10.2% |
| `CCCC(C#N)NC(=O)c1ccc(NC2CC2)nc1` (stereo unspecified) | 40.74% | 13.57% |
| `CS(=O)(=O)c1ccc(CN)cc1C(F)(F)F` | 18.44% | 8.47% |
| `CCOC(=O)C1CCN(Cc2nccn2C)CC1` | 7.921% | -13.68% |
| `NC(=O)Nc1ccc(CNC(=O)c2cccnc2)cc1` | 16.84% | 11.97% |
| `CC(=O)N1CCC(NC(=O)c2ccc(C#N)cc2)CC1` | 4.278% | 1.753% |
| `COCCNC(=O)CN1CCCC(NS(C)(=O)=O)C1` (stereo unspecified) | 9.93% | 1.367% |
| `NC(=O)C1CCCN(Cc2ccc(F)c(Br)c2)C1` (stereo unspecified) | 30.53% | 15.39% |
| `Cc1ccc(NS(C)(=O)=O)cc1N1CCCC1=O` | 5.548% | 7.759% |
| `CCc1ccccc1CNC(=O)NC(C)C(=O)N(C)C` (stereo unspecified) | 3.41% | -4.407% |
| `COC(=O)C(C)NC(=O)C1CCCCC1` (stereo unspecified) | 49.76% | 3.469% |
| `COCC(C)NCc1ccc(NC(C)=O)cc1` (stereo unspecified) | 16.33% | -2.206% |
| `COCC(C)NC(=O)N1CCC2(C1)OCCO2` (stereo unspecified) | 14.21% | 9.006% |
| `NCCNS(=O)(=O)c1cccc2nsnc12` | 19.65% | 10.42% |
| `Cc1cc(N)n(Cc2nc(C3CCOC3)no2)n1` (stereo unspecified) | 3.333% | -2.304% |
| `CC1CN(Cc2ccccc2)CC1=O` (stereo unspecified) | 41.36% | 27.38% |
| `CN(C)S(=O)(=O)Cc1ccc(Br)cc1` | 28.61% | 15.28% |
| `CN(CCCN)C(=O)CCCn1ccnc1` | -1.782% | 3.751% |
| `CC(O)CN(C(=O)Cc1ccc(F)c(F)c1)C(C)C` (stereo unspecified) | 16.28% | 1.403% |
| `CCc1c[nH]ccc1=N` | -9.47% | -2.558% |
| `CC(=O)NCc1ccc(-c2ccccc2CO)nc1` | -12.76% | -31.57% |
| `Cc1ccc(NCc2cccc(O)c2)cc1S(C)(=O)=O` | 73.55% | 68.26% |
| `OCCCN(Cc1ccccc1)Cc1ccccn1` | 47.77% | 29.87% |
| `CCN1CCCN(C(=O)NCCCn2ccnc2)CC1` | -7.485% | -6.914% |
| `COc1cc(CN)cc(Br)c1OC` | 58.81% | 35.8% |
| `C=Cc1cccc(CN(C)CCC(=O)NC)c1` | -2.71% | -0.6139% |

Repeated from the top, 6 entries:

{"compound": "CCC(N)C(=O)N1CCN(S(C)(=O)=O)CC1", "stereo": "stereo unspecified", "Mtb glucose medium": 0.3814, "Mtb cholesterol medium": -0.7009}
{"compound": "CC(C)N(CCOc1ccccc1C#N)CC(N)=O", "Mtb glucose medium": 44.62, "Mtb cholesterol medium": 30.85}
{"compound": "Cc1csc(N2CCN(C(=O)c3scnc3C)CC2)n1", "Mtb glucose medium": 33.72, "Mtb cholesterol medium": 18.79}
{"compound": "O=C(NCCOc1ncccc1Cl)c1cscn1", "Mtb glucose medium": -4.379, "Mtb cholesterol medium": -10.66}
{"compound": "Cc1[nH]ncc1CCCNC(=O)CCN", "Mtb glucose medium": -5.272, "Mtb cholesterol medium": 2.436}
{"compound": "O=C(Nc1cc(F)cc(F)c1)N[C@@H]1CNCC[C@H]1O", "Mtb glucose medium": 30.35, "Mtb cholesterol medium": 22.47}